In doi:10.1101/419911:
Where two headings read alike, the source gives them in different places. Results are given in words; binding and its absence hold for the method and conditions named. For part of these data: In cells and extracts the contact can be indirect. Some entries that bind do so weakly or less than the wild type.

By UniProt entry, the sequences of proteins in these tests, tags left out. Where a name states a change or a piece, a line headed by the entry shows the natural chain unless it says otherwise. Chains listed by the source or under a name are the forms on record and can include a tag or linker. Residues count along the entry.
UniProt Q96CW1: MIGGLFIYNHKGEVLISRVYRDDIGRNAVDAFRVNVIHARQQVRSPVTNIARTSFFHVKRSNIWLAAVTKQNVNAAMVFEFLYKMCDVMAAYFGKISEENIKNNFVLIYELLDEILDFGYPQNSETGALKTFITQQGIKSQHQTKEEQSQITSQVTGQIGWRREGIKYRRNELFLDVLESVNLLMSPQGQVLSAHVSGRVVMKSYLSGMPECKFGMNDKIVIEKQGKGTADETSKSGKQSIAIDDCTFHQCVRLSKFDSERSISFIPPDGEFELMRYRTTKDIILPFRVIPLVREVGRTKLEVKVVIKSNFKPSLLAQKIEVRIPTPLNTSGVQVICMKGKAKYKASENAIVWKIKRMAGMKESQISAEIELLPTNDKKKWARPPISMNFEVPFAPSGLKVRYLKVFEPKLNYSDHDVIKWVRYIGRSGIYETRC
UniProt P35568: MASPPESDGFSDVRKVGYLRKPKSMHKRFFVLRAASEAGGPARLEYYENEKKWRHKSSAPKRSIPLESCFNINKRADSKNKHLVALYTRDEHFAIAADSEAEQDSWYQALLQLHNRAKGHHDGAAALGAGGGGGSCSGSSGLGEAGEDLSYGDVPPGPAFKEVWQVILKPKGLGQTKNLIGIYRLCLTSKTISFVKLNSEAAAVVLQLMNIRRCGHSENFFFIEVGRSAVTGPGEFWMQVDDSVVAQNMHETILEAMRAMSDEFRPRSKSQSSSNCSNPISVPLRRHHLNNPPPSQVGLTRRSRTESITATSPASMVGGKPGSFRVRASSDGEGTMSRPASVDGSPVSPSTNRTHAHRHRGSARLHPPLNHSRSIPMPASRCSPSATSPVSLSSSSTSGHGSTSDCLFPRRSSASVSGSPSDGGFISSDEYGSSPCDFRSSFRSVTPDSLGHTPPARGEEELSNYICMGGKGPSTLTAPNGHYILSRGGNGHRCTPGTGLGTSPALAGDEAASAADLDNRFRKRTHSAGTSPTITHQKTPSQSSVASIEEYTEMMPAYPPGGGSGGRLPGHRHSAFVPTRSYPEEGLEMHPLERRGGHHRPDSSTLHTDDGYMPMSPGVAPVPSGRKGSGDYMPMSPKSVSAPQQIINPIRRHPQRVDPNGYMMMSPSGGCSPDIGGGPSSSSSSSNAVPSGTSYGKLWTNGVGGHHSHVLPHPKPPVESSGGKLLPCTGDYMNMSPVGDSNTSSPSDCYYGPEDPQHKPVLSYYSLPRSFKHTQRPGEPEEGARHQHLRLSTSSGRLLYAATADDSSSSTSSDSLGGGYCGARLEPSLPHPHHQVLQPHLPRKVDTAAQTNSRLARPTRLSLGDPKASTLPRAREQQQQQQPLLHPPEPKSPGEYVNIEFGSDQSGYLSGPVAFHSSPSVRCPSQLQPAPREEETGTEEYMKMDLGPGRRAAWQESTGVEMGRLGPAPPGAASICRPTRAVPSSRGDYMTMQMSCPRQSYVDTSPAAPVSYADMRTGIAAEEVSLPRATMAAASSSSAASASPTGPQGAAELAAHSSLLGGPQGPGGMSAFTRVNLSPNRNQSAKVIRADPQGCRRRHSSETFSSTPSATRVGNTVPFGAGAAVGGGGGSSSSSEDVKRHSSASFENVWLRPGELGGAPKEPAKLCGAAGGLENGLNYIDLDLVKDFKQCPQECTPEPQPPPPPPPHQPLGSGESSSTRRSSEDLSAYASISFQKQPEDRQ
IRS1 (residues 449-864) 3YA (Y612A/Y632A/Y662A) (P35568, form named): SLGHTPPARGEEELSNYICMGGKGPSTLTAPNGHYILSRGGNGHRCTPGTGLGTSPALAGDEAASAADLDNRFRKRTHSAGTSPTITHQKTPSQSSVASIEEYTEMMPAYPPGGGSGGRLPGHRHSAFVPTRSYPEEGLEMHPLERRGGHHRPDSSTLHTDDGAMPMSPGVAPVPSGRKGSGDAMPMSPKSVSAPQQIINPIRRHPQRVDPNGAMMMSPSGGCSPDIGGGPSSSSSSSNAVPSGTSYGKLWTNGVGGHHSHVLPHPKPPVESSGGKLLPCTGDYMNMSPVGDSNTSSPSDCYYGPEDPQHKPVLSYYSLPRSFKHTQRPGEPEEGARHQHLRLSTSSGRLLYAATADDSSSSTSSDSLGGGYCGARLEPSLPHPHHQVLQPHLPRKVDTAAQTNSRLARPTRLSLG

Experiments:
Assay in all cases: pull-down
[1] = target: T1, IRS1 peptide AMPAS (Y612 and M615 replaced by alanine) (human)
T1 sequence (peptide): CHTDDGAMPASPGVA

[2] = target: GST-AP2M1 (full-length human AP2M1) (human) (UniProt Q96CW1)
[3] = target: GST-AP2M1 (full-length human AP2M1) (human) (UniProt Q96CW1); remark: listed apart in the source

Molecule | binding [2] | also measured
AP2M1 (residues 160-435) (from UniProt Q96CW1 160-435) (domain or fragment) | – | binding [1]: no binding
IRS1 (residues 449-864) 3YA (Y612A/Y632A/Y662A) (from UniProt P35568 449-864) (domain or fragment) | binds | –
IRS1 (residues 449-864) (from UniProt P35568 449-864) (domain or fragment) | binds | –
IRS1 YXXΦ-containing central region (residues 449-679) (from UniProt P35568 449-679) (domain or fragment) | binds | –
Myc-IRS1 full-length (from UniProt P35568 1-1242) | binds | –
IRS2 fragment (residues 520-888) (domain or fragment, UniProt P81122 520-888) SIAETPPARDGSGGELYGYMSMDRPLSHCGRPYRRVSGDGAQDLDRGLRKRTYSLTTPARQRQVPQPSSASLDEYTLMRATFSGSSGRLCPSFPASSPKVAYNPYPEDYGDIEIGSHKSSSSNLGADDGYMPMTPGAALRSGGPNSCKSDDYMPMSPTSVSAPKQILQPRLAAALPPSGAAVPAPPSGVGRTFPVNGGGYKASSPAESSPEDSGYMRMWCGSKLSMENPDPKLLPNGDYLNMSPSEAGTAGTPPDFSAALRGGSEGLKGIPGHCYSSLPRSYKAPCSCSGDNDQYVLMSSPVGRILEEERLEPQATPGAGTFGAAGGSHTQPHHSAVPSSMRPSAIGGRPEGFLGQRCRAVRPTRLSLE | – | binding [3]: binds
